Cleaved PARP in drug-treated melanoma cells

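Human melanoma cell lines in 1,536-well plates were treated with a pair of drugs for 72 h, then fixed, stained and imaged. The read-out is the fraction of cleaved-PARP-positive nuclei, in % of that fraction in the DMSO control; 200 means twice the control level of this apoptosis marker. Concentrations were fixed for each drug; these are the higher of two levels. The file gives one value for each pair and line, without errors, so small differences may be noise. The marker varies much from line to line, for technical or biological reasons.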 An unselected part of the screen is shown. A dash means that no value is listed here.

First drug in all entries: PF-04217903, 5000 nM, OCCn1cc(-c2cnc3nnn(Cc4ccc5ncccc5c4)c3n2)cn1

Partner	IST-MEL1	SK-MEL-5	A101D	WM3619	COLO 800	501mel	WM115	RPMI-7951	MZ2-MEL
Nc1ncn([C@H]2C[C@H](O)[C@@H](CO)O2)c(=O)n1 at 500 nM	166	383	77.8	143	94.5	-	113	44.6	104
Cc1cn(-c2cc(NC(=O)c3ccc(C)c(Nc4nccc(-c5cccnc5)n4)c3)cc(C(F)(F)F)c2)cn1 at 1000 nM	80.4	53.1	35.9	95.6	158	-	141	125	57.1
CC(=O)O[C@@]12CO[C@@H]1C[C@H](O)[C@@]1(C)C(=O)[C@H](O)C3=C(C)[C@@H](OC(=O)[C@H](O)[C@@H](NC(=O)OC(C)(C)C)c4ccccc4)C[C@@](O)([C@@H](OC(=O)c4ccccc4)[C@H]21)C3(C)C at 0.5 nM	104	592	72.0	134	198	-	541	531	558
O=C(Oc1ccc([N+](=O)[O-])cc1)N1CCC(C(O)(c2ccc3c(c2)OCO3)c2ccc3c(c2)OCO3)CC1 at 5000 nM	2880	92.7	26.4	82.6	50.6	157	22.6	53.0	90.8
Cc1nc(Nc2ncc(C(=O)Nc3c(C)cccc3Cl)s2)cc(N2CCN(CCO)CC2)n1 at 20 nM	147	39.8	125	83.9	154	-	88.7	295	27.3
Cn1c(=O)n(-c2ccc(C(C)(C)C#N)cc2)c2c3cc(-c4cnc5ccccc5c4)ccc3ncc21 at 20 nM	291	209	250	103	92.0	-	135	77.9	87.1
C[C@]1(O)C[C@@H](c2nc(-c3ccc4ccc(-c5ccccc5)nc4c3)c3c(N)nccn32)C1 at 2000 nM	99.0	115	51.4	101	57.8	-	46.0	197	57.2
O=S(=O)(c1ccccc1)N(CC(F)(F)F)c1ccc(C(O)(C(F)(F)F)C(F)(F)F)cc1 at 7000 nM	143	88.6	214	94.4	122	125	53.1	79.4	19.4
NC1(c2ccc(-c3nc4ccn5c(=O)[nH]nc5c4cc3-c3ccccc3)cc2)CCC1 at 2000 nM	298	173	111	99.8	103	-	101	78.1	130
C#Cc1cccc(Nc2ncnc3cc(OCCOC)c(OCCOC)cc23)c1 at 4000 nM	158	118	156	131	79.1	-	169	142	-
C[As](C)SC[C@H](NC(=O)CC[C@H](N)C(=O)O)C(=O)NCC(=O)O at 2000 nM	90.1	98.5	161	86.6	130	-	85.7	51.5	80.6
CN(c1ncccc1CNc1nc(Nc2ccc3c(c2)CC(=O)N3)ncc1C(F)(F)F)S(C)(=O)=O at 400 nM	139	189	148	143	95.5	-	82.3	156	348
CS(=O)(=O)c1ccc(C(=O)Nc2ccc(Cl)c(-c3ccccn3)c2)c(Cl)c1 at 5000 nM	97.0	59.1	45.8	82.7	74.1	-	206	58.8	201
Cn1cnc2c(F)c(Nc3ccc(Br)cc3Cl)c(C(=O)NOCCO)cc21 at 75 nM	82.4	92.3	64.0	137	84.2	-	239	113	-
CN(NC(=O)CC(=O)NN(C)C(=S)c1ccccc1)C(=S)c1ccccc1 at 30 nM	813	186	193	990	96.1	-	4380	311	197
OCc1c[nH]c2ccccc12 at 4000 nM	191	53.3	93.6	91.8	68.7	-	95.8	153	75.4
COC(=O)c1sccc1S(=O)(=O)Nc1ccc(Nc2ccccc2)cc1OC at 5000 nM	27.9	63.0	91.0	96.0	34.4	94.1	94.5	177	76.4
O=C(O)c1ccc2c(c1)nc(Nc1cccc(Cl)c1)c1ccncc12 at 2000 nM	148	201	99.8	107	131	-	48.0	107	182
COCC[n+]1c2c(n(Cc3cnccn3)c1C)C(=O)c1ccccc1C2=O at 2 nM	172	717	131	89.5	173	-	55.6	697	237
C[C@]1(c2nc3c(C(N)=O)cccc3[nH]2)CCCN1 at 7000 nM	50.8	137	115	112	99.7	-	316	56.6	162
C[C@]12O[C@H](C[C@]1(O)CO)n1c3ccccc3c3c4c(c5c6ccccc6n2c5c31)CNC4=O at 20 nM	113	303	137	97.3	195	-	121	93.7	-
CCc1ccc(CCOc2ccc(CC3SC(=O)NC3=O)cc2)nc1 (configuration not stated) at 10000 nM	28.2	92.8	131	122	93.9	195	98.8	82.9	123
O=C1NC(=O)/C(=C/c2ccc(-c3ccc(F)cc3O)o2)S1 at 5000 nM	118	154	59.7	100	107	250	111	125	207
O=C(/C=C/c1cccnc1)NCCCCC1CCN(C(=O)c2ccccc2)CC1 at 50 nM	50.3	74.6	39.6	105	121	-	169	42.9	1480
Cc1cc(SCc2sc(-c3ccc(C(F)(F)F)c(F)c3)nc2C)ccc1OCC(=O)O at 10000 nM	126	246	83.1	133	45.1	61.7	28.3	140	69.0
C/C(O)=C(\C#N)C(=O)Nc1cc(Br)ccc1Br at 10000 nM	62.2	268	71.4	100	63.7	84.0	104	405	47.2
NC(=O)Nc1cc(-c2cccc(F)c2)sc1C(=O)N[C@H]1CCCNC1 at 100 nM	111	82.7	260	352	66.2	-	158	547	128
O=C(Nc1ccccc1)c1cc([N+](=O)[O-])ccc1Cl at 10000 nM	54.8	127	336	116	161	125	132	65.2	186
N#CC[C@H](C1CCCC1)n1cc(-c2ncnc3[nH]ccc23)cn1 at 5000 nM	123	55.4	77.9	314	104	-	201	144	-
Cn1cc(C2=C(c3cn(C4CCN(Cc5ccccn5)CC4)c4ccccc34)C(=O)NC2=O)c2ccccc21 at 4000 nM	196	219	548	67.3	99.4	-	50.2	192	71.1
O=C(O)C(=O)Nc1sc2c(c1C(=O)O)CCNC2 at 8330 nM	120	181	168	250	127	58.0	104	60.6	262
COc1cc(N2CCC(N3CCN(C)CC3)CC2)ccc1Nc1ncc(Cl)c(Nc2ccccc2S(=O)(=O)C(C)C)n1 at 400 nM	115	146	42.5	130	134	226	65.3	96.4	388
N.N.[Cl][Pt][Cl] at 8000 nM	130	86.8	106	143	75.3	-	155	80.6	161
CO[C@H]1C[C@@H]2CC[C@@H](C)[C@@](O)(O2)C(=O)C(=O)N2CCCC[C@H]2C(=O)O[C@H]([C@H](C)C[C@@H]2CC[C@@H](OCCO)[C@H](OC)C2)CC(=O)[C@H](C)/C=C(\C)[C@@H](O)[C@@H](OC)C(=O)[C@H](C)C[C@H](C)/C=C/C=C/C=C/1C at 100 nM	68.5	259	105	123	244	-	327	64.4	-
CC(C)C[C@H](NC(=O)[C@H](Cc1ccccc1)NC(=O)c1cnccn1)B(O)O at 5 nM	966	1060	3440	1110	78.2	-	4350	1110	45400

Source: doi:10.1371/journal.pone.0140310, primary screening data, rounded.